Results on 42 sequences are retold here after publication PMC7819943, “Rice protein-binding microarrays: a tool to detect cis-acting elements near promoter regions in rice”.

Some of the results follow.

The target in the test is T1, OsSMF1 (Oryza sativa, UniProt Q6ZLB0 1-436).
T1 sequence: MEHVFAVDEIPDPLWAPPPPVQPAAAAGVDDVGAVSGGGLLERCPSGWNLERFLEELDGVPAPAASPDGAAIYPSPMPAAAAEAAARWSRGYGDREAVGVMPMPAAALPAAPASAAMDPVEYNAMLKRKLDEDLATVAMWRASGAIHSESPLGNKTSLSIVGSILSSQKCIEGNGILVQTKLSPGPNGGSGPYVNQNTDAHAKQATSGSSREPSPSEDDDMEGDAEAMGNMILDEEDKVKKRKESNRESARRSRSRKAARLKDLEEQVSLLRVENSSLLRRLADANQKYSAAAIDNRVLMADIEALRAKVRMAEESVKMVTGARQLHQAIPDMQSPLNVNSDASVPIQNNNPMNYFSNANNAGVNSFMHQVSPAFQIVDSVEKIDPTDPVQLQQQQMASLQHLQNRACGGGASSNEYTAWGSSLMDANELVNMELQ
Put plainly: protein-binding microarray (RPBM); PBS, 2% BSA, 51.3 ng/ul salmon testes DNA, 50 uM zinc acetate, 200 nM TF, 25 C, 1 h; high values mean tight binding. To be noted: protein: recombinant; tags: N-terminal polyhistidine and DsRed monomer fusion (pET32a); chain copies: 2; label: CyDye5-dUTP incorporated in the synthesized complementary strand; 3' TTTTT single-stranded linker to array surface; dsDNA, one strand shown. An outline of the steps:
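Binding signal is defined as the fluorescence intensity of each feature in arbitrary units, read on an Axon 4000B scanner. Transcription factors with N-terminal polyhistidine and DsRed fusions came from E. coli BL21-CodonPlus and were purified on Ni–NTA. They were incubated at 200 nM for 1 h at 25 °C on a custom Agilent array that had been made double-stranded with Cy5-dUTP, with 50 µM zinc acetate present, and the array was washed.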
Turning to “TGTAGACCAGCTCCTCCATTCCTTCCACGTGCTTGCCCCTCGGAGTCACCTAGTGCAG”, the binding signal was 7090 fluorescence intensity (a.u.). For “CGCGGCGCGTGGACCAGAGTAGTGTAGTGGAGTACCCAACCGGAGTCACCTAGTGCAG”, the binding signal was 3970 fluorescence intensity (a.u.). “CCTGTGGCTTTATATAAACACCATGGTTGTCAGCAGTTCACGGAGTCACCTAGTGCAG”: the binding signal was 4170 fluorescence intensity (a.u.). As for “ACAAATTATGATGTTTTCTAATGAACATCATCGCCTGGTTCGGAGTCACCTAGTGCAG”, the binding signal was 3360 fluorescence intensity (a.u.). The value for “CCTAGCTAAAGATCCGTGAAGTCGTGCTAAATGCTAGTACCGGAGTCACCTAGTGCAG” was 3740 fluorescence intensity (a.u.). The value for “TACGTGTGTTGATTTCCGTGACATATGCATAAATTTCTTTCGGAGTCACCTAGTGCAG” was 3530 fluorescence intensity (a.u.); that for “GCCATCCACACCTTTCCCCGTCGGCGCTTAAATCCTCCCACGGAGTCACCTAGTGCAG” was 3320 fluorescence intensity (a.u.). “GAAAAGCTGACTAATCTGACTTGCCTAAGAAACGCATTAGCGGAGTCACCTAGTGCAG”: the binding signal is 3590 fluorescence intensity (a.u.). “AGTTTTGTGGATGGGTATAATGACGTTATAACAACGTTTTCGGAGTCACCTAGTGCAG”: the binding signal is 3540 fluorescence intensity (a.u.). The figure for “TAGCTCGCTTGTCTACGTGCACCGAGTCCACGAGCACCCCCGGAGTCACCTAGTGCAG” is 4180 fluorescence intensity (a.u.); for “CGCTGAAATCCGCCGTGCACGTACACCGTCTTGTCGATCACGGAGTCACCTAGTGCAG” it is 3460 fluorescence intensity (a.u.); for “CGGCGTTGCGCGTGCGCCACCTGTTATCCACCACCACTCCCGGAGTCACCTAGTGCAG” it is 3310 fluorescence intensity (a.u.). The value for “AGAGTAGGATGACCTGGACAGGCTGACACGTGGGGCCCTTCGGAGTCACCTAGTGCAG” was 10700 fluorescence intensity (a.u.); that for “ACCAACGGTACGCACGCGGAGAGCCCCGCGCGTAATTTGTCGGAGTCACCTAGTGCAG” was 3790 fluorescence intensity (a.u.).

For “GCCACTCTCGTAATCTTACATAGTCATCATTATTCACACGCGGAGTCACCTAGTGCAG”, the binding signal is 5470 fluorescence intensity (a.u.). For “GCCCGCAGCTAAACCAGGTGACGTCGAACCCACACTCACCCGGAGTCACCTAGTGCAG”, the binding signal is 4800 fluorescence intensity (a.u.).

Turning to “ACGGCTGAGAGTCACCCTGATATTTGAGTCCCGTTCGATCCGGAGTCACCTAGTGCAG”, the binding signal was 3490 fluorescence intensity (a.u.). Turning to “CCCCGTCCACGTCCACCCCTCGCCGTCGTCAAAGCGCGGCCGGAGTCACCTAGTGCAG”, the binding signal was 6860 fluorescence intensity (a.u.). Consider “ATCTCACACGTTGCTCATCATGTCGTCACACTCTCCAGCTCGGAGTCACCTAGTGCAG”, for which the binding signal was 6030 fluorescence intensity (a.u.). In the case of “GGGAGGGGAGTGAGAATGACATGTGGGACTTACGTGGGTCCGGAGTCACCTAGTGCAG”, the binding signal was 5280 fluorescence intensity (a.u.). In the case of “CCGGCGCGGTGAAGGAGACGTGGCCGGTGGCTGGGCAGCGCGGAGTCACCTAGTGCAG”, the binding signal was 3220 fluorescence intensity (a.u.). As for “GACAAACTGACACGGTGACAGTATAAGGGGCTCGCATCCGCGGAGTCACCTAGTGCAG”, the binding signal is 3590 fluorescence intensity (a.u.). The figure for “CGATCGGTGTTCCACGGTGAGTGTTAGTTTCTCTTTGTGCCGGAGTCACCTAGTGCAG” is 13500 fluorescence intensity (a.u.). The figure for “TGTCCAGCAGCCTCCCACAACTCCGCTCTCACCATCACCCCGGAGTCACCTAGTGCAG” is 32400 fluorescence intensity (a.u.). In the case of “GAGAGAATCTTGGAACGATTAGTAGTACATAAAGTAGAATCGGAGTCACCTAGTGCAG”, the binding signal was 3650 fluorescence intensity (a.u.). As to “GAGGGCCACGTGGCGCCTGGGGCAACCCTCTCCCTCTAGTCGGAGTCACCTAGTGCAG”, the binding signal was 17300 fluorescence intensity (a.u.). The value for “CGCGGCAAGGTCGGCTGCCAGAGAGCGCGCGTGAAGGGGACGGAGTCACCTAGTGCAG” was 24800 fluorescence intensity (a.u.). The value for “TGCCACCGTGGCGGCCGGGCCGATCCCCTAGCTGACGTGGCGGAGTCACCTAGTGCAG” was 41900 fluorescence intensity (a.u.); that for “TGAGTTCATGTGCCGGTTCCAGCTCAACCTAGGCCAGAGGCGGAGTCACCTAGTGCAG” was 4120 fluorescence intensity (a.u.). The value for “AAATATCTTTTCACATGTGGACTTATTAAGGAACCACTTCCGGAGTCACCTAGTGCAG” was 12600 fluorescence intensity (a.u.); that for “GTAAAATCATATATAGAAAGTAGATAATTTTGTATGGGTTCGGAGTCACCTAGTGCAG” was 10500 fluorescence intensity (a.u.); that for “ATGCTACGTTTGCTATCCTCTCCCACGTACTCCGTAGAGTCGGAGTCACCTAGTGCAG” was 3600 fluorescence intensity (a.u.). Turning to “AAATCAACCATCTTTCCTCAAACGTGTTCATTATCTAAACCGGAGTCACCTAGTGCAG”, the binding signal is 3960 fluorescence intensity (a.u.).

Consider “CCCACACACAAAAGCCGCAAAGGACGATGCCACACACACTCGGAGTCACCTAGTGCAG”, for which the binding signal is 3740 fluorescence intensity (a.u.). The figure for “ATATCGATATACACGTTATGATACTAACAAACAGATTTTCCGGAGTCACCTAGTGCAG” is 3600 fluorescence intensity (a.u.). The figure for “CGGCCCCTCTCGCTGCCACGTTTTAAGCATCCAAACTGCGCGGAGTCACCTAGTGCAG” is 5160 fluorescence intensity (a.u.); for “CCTATAAACACTCGTAAGCTGCCATGTGACACTCCTACAACGGAGTCACCTAGTGCAG” it is 3840 fluorescence intensity (a.u.); for “TCTAGATGCACTTATAGAATGACATATCAGTGTTAGTAAGCGGAGTCACCTAGTGCAG” it is 3330 fluorescence intensity (a.u.). The value for “GGAGCACGCCACATGTCAGCACCCACGACCACGGCCACGCCGGAGTCACCTAGTGCAG” was 5760 fluorescence intensity (a.u.).

Consider “AATTGTCCCTGATTGACACCTCTTACTTGACCCTTCTTTCCGGAGTCACCTAGTGCAG”, for which the binding signal was 3490 fluorescence intensity (a.u.). The value for “CCACATGTACTAGTGGGCCGGCTACCAGCCCACGTGCCACCGGAGTCACCTAGTGCAG” was 4300 fluorescence intensity (a.u.); that for “TTACACATATAGATCTGTCATCTTGGTTTAATGATTCGTACGGAGTCACCTAGTGCAG” was 5340 fluorescence intensity (a.u.).
